Laboratory results published in patent US20230332203A1, “RAPID ANTIBIOTIC SUSCEPTIBILITY TESTING” (IOWA STATE UNIVERSITY RESEARCH FOUNDATION, INC., priority 2022, published 2023).

System: E. coli JJ1886 (JJ, resistant)
Conditions: 20% D2O

O=C(O)c1cn(C2CC2)c2cc(N3CCNCC3)c(F)cc2c1=O [ciprofloxacin]
change of average molecular weight of PE 32:1 with culture time (10 μg/mL, 30 min to two hours): increases
concentration up to which the molecular weight of PE 32:1 remains consistent (no decrease in deuterium labeling) (two-hour culture, resistant strain): 80 µg/mL
